Measured values from US6447748B1, “Benzamide compounds for cancer imaging and therapy” (Research Corporation Technologies, Inc., priority 1993, dated 2002).
Like-named read-outs stand apart in the source and are kept apart here.

Key:
[1] = biological target: sigma receptors on breast tissue membranes (biopsied human tumor); conditions: read-out: Ki against 2-[125I]BP; breast tumor biopsy membranes, 1 hr at 37° C.
[2] = biological target: sigma receptors on breast tissue membranes (biopsied human tumor); conditions: read-out: Ki against 4-[125I]BP; breast tumor biopsy membranes, 1 hr at 37° C.

## O=C(CCCN1CCC(O)(c2ccc(Cl)cc2)CC1)c1ccc(F)cc1 [Haloperidol]
[1]
  Ki: 6.3 nM
[2]
  Ki: 3.8 nM
